# Test results from the supplement of paper PMC4604168 (melanoma cell lines).
# The other results are listed elsewhere or left out. Single values are uncertain, as repeats are few or missing.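 Imaging used 1,536-well plates; nuclei positive for cleaved PARP by antibody were divided by total DNA-stained nuclei to yield the apoptosis fraction. Doses for screening kept most cells viable, and cell lines differ markedly in resting and induced cleaved-PARP levels.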
# Tested on: CBRC008 (line from a melanoma biopsy)
# Assay: cleaved PARP positive nuclei fraction relative to DMSO control; melanoma cells; higher = more apoptosis
# Details: library dose: low library concentration; 72 h
row,Compound,cleaved PARP positive nuclei fraction [%]
1,"CC(=O)O[C@@]12CO[C@@H]1C[C@H](O)[C@@]1(C)C(=O)[C@H](O)C3=C(C)[C@@H](OC(=O)[C@H](O)[C@@H](NC(=O)OC(C)(C)C)c4ccccc4)C[C@@](O)([C@@H](OC(=O)c4ccccc4)[C@H]21)C3(C)C [Docetaxel] + CCCCCCCCCCCC1=C(O)C(=O)C=C(O)C1=O [Embelin] (first compound 0.0001 µM, partner dose 1.2 µM)",472
2,"NC1(c2ccc(-c3nc4ccn5c(=O)[nH]nc5c4cc3-c3ccccc3)cc2)CCC1 + CC(C)CCN1c2nc(Nc3cc(F)c(O)c(F)c3)ncc2N(C)C(=O)C1C [BID1870] (first compound 0.4 µM, partner dose 0.2 µM)",99.8
3,"CS(=O)(=O)c1ccc(C(=O)Nc2ccc(Cl)c(-c3ccccn3)c2)c(Cl)c1 [vismodegib] + CCCCCCCCCCCC1=C(O)C(=O)C=C(O)C1=O [Embelin] (first compound 1 µM, partner dose 1.2 µM)",168
4,"COc1ccc(C2=N[C@@H](c3ccc(Cl)cc3)[C@@H](c3ccc(Cl)cc3)N2C(=O)N2CCNC(=O)C2)c(OC(C)C)c1 [Nutlin-3] + COc1ccc(-c2ccc3c(N4CCOCC4)nc(N4C[C@@H](C)O[C@@H](C)C4)nc3n2)cc1CO [KU0063794] (first compound 0.1 µM, partner dose 0.02 µM)",108
5,"Cn1cnc2c(F)c(Nc3ccc(Br)cc3Cl)c(C(=O)NOCCO)cc21 [selumetinib] + CC(C)CCN1c2nc(Nc3cc(F)c(O)c(F)c3)ncc2N(C)C(=O)C1C [BID1870] (first compound 0.015 µM, partner dose 0.2 µM)",148
